{"source": "PubChem BioAssay AID504791 (Drosophila RNAi Screening Center, 2011)", "aim": "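Genes whose knock-down strengthens or weakens small-RNA reporter silencing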 (primary screen)", "system": "Drosophila S2-derived reporter cells", "knock-down reagent": "long dsRNA against Drosophila genes, about 150-250 ng dsRNA per well (siRNA assay); about 80-120 ng (miRNA assay)", "time to read-out": "about 5 days (siRNA assay); about 4 days (miRNA assay)", "challenge": "copper sulfate induction of reporters: 25 µM (siRNA assay); 200 mM stated (miRNA assay), 1-2 days before reading", "measurement": "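Per-well ratio of Renilla over firefly light, expressed relative to that plate's average ratio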", "direction": "siRNA reporter hit score: higher = 3 marks a strong hit with raised ratio; -3 a strong hit with lowered ratio", "units": "stable assay Renilla, run 1 in luminescence; stable assay firefly, run 1 in luminescence", "call rule": "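a well was a first-pass pick when its plate-scaled ratio rose above 1.5 (siRNA assay) or 1.6 (miRNA assay), or dropped below 0.6; a gene counted only if two separate dsRNAs agreed on retest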", "note": "The screen tested about 23,000 reagents; shown is a random part of those that have a named target and a result. Of all reagents, 199 (0.86%) are marked active. 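Plate-scaled ratios behind the calls are not deposited; printed light signals are raw; many rows marked increased or decreased are still called inactive.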 A number with no mark means an inactive call. Reagents against one gene are numbered here."}
{"predicted target": "CG17751", "dsRNA no.": 1, "stable assay Renilla, run 1": 6778, "stable assay firefly, run 1": 3.81e5}
{"predicted target": "CG17751", "dsRNA no.": 2, "stable assay Renilla, run 1": 5352, "stable assay firefly, run 1": 4.35e5}
{"predicted target": "CR33328 (retired record)", "dsRNA no.": 1, "stable assay Renilla, run 1": 4015, "stable assay firefly, run 1": 3.79e5}
{"predicted target": "Osi18 (Osiris 18)", "dsRNA no.": 1, "stable assay Renilla, run 1": 6336, "stable assay firefly, run 1": 4.15e5}
{"predicted target": "Ag5r (Antigen 5-related)", "dsRNA no.": 1, "stable assay Renilla, run 1": 7143, "stable assay firefly, run 1": 4.18e5}
{"predicted target": "al (aristaless)", "dsRNA no.": 1, "stable assay Renilla, run 1": 4611, "stable assay firefly, run 1": 3.26e5}
{"predicted target": "CG11249", "dsRNA no.": 1, "stable assay Renilla, run 1": 7530, "stable assay firefly, run 1": 4.70e5}
{"predicted target": "CG6178", "dsRNA no.": 1, "stable assay Renilla, run 1": 9551, "stable assay firefly, run 1": 2.93e5}
{"predicted target": "Kr-h2 (Kruppel homolog 2)", "dsRNA no.": 1, "stable assay Renilla, run 1": 7331, "stable assay firefly, run 1": 4.42e5}
{"predicted target": "CG4382", "dsRNA no.": 1, "stable assay Renilla, run 1": 7450, "stable assay firefly, run 1": 3.16e5}
{"predicted target": "CG5103", "dsRNA no.": 1, "stable assay Renilla, run 1": 6831, "stable assay firefly, run 1": 3.60e5}
{"predicted target": "CG7140", "dsRNA no.": 1, "stable assay Renilla, run 1": 7590, "stable assay firefly, run 1": 4.25e5}
{"predicted target": "lncRNA:CR32660 (long non-coding RNA:CR32660)", "dsRNA no.": 1, "stable assay Renilla, run 1": 5619, "stable assay firefly, run 1": 5.20e5}
{"predicted target": "CG15365", "dsRNA no.": 1, "stable siRNA reporter change": "reporter ratio raised past the hit cutoff", "stable assay Renilla, run 1": 4787, "stable assay firefly, run 1": 1.70e5}
{"predicted target": "CG15365", "dsRNA no.": 2, "miRNA reporter change": "reporter ratio raised past the hit cutoff", "stable assay Renilla, run 1": 3340, "stable assay firefly, run 1": 2.83e5}
{"predicted target": "CG16837", "dsRNA no.": 1, "stable assay Renilla, run 1": 7402, "stable assay firefly, run 1": 4.63e5}
{"predicted target": "Pomp", "dsRNA no.": 1, "siRNA reporter hit score": -3, "stable assay Renilla, run 1": 7482, "stable assay firefly, run 1": 1.09e6}
{"predicted target": "Pomp", "dsRNA no.": 2, "miRNA reporter change": "reporter ratio raised past the hit cutoff"}
{"predicted target": "VhaM9.7-d (Vacuolar H[+] ATPase M9.7 subunit d)", "dsRNA no.": 1, "stable assay Renilla, run 1": 7390, "stable assay firefly, run 1": 4.33e5}

Reformatted: 3 of the entries above.
predicted target | dsRNA no. | siRNA reporter hit score | stable siRNA reporter change | miRNA reporter change | stable assay Renilla, run 1 | stable assay firefly, run 1
al (aristaless) | 1 | – | – | – | 4611 | 3.26e5
CG11249 | 1 | – | – | – | 7530 | 4.70e5
CG6178 | 1 | – | – | – | 9551 | 2.93e5
